Measured values taken from PMC6581795, “Phosphorylation of FANCD2 Inhibits the FANCD2/FANCI Complex and Suppresses the Fanconi Anemia Pathway in the Absence of DNA Damage”.
Results are given in words; binding and its absence hold for the method and conditions named. Some binding calls cover weakened binding; strength is not graded here. Sequences can lack the tags named with a protein.

By UniProt entry, the sequences of proteins in these tests, tags left out. Where a name states a change or a piece, a line headed by the entry shows the natural chain unless it says otherwise.
UniProt Q9BXW9: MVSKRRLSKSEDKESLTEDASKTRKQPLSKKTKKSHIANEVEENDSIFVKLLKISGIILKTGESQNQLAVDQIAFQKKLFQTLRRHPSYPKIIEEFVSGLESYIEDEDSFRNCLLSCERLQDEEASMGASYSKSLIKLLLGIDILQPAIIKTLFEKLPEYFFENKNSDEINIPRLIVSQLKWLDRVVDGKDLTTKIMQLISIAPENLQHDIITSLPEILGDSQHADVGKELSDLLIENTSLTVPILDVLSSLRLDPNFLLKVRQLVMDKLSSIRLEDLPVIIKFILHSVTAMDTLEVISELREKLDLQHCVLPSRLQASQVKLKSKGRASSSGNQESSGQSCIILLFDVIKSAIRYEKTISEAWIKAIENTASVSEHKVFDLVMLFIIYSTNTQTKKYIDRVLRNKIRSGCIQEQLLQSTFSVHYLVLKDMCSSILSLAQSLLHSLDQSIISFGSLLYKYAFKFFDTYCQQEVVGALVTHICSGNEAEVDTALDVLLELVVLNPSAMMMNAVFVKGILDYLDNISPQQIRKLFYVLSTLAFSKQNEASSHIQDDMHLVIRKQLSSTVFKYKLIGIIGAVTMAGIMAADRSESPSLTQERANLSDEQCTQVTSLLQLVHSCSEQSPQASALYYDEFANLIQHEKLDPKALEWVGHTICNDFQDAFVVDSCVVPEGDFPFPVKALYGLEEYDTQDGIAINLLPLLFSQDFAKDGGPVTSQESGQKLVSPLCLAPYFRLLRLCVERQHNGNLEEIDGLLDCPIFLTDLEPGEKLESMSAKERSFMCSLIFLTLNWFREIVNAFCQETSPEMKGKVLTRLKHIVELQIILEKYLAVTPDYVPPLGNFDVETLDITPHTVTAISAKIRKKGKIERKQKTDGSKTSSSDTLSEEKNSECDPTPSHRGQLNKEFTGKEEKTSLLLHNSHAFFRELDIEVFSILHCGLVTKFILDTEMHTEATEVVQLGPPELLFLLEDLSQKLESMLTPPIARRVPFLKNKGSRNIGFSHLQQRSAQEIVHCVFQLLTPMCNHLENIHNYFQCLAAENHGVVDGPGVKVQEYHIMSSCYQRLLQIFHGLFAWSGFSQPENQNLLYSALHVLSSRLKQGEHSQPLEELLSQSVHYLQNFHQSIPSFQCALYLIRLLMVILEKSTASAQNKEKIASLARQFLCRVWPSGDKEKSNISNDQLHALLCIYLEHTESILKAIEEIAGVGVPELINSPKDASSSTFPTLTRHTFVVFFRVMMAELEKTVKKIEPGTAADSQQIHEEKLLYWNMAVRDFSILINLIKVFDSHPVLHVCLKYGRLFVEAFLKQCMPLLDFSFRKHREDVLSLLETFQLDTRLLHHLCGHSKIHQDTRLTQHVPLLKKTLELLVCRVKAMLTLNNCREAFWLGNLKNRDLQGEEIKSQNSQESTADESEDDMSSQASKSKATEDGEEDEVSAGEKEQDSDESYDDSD
UniProt Q9NVI1: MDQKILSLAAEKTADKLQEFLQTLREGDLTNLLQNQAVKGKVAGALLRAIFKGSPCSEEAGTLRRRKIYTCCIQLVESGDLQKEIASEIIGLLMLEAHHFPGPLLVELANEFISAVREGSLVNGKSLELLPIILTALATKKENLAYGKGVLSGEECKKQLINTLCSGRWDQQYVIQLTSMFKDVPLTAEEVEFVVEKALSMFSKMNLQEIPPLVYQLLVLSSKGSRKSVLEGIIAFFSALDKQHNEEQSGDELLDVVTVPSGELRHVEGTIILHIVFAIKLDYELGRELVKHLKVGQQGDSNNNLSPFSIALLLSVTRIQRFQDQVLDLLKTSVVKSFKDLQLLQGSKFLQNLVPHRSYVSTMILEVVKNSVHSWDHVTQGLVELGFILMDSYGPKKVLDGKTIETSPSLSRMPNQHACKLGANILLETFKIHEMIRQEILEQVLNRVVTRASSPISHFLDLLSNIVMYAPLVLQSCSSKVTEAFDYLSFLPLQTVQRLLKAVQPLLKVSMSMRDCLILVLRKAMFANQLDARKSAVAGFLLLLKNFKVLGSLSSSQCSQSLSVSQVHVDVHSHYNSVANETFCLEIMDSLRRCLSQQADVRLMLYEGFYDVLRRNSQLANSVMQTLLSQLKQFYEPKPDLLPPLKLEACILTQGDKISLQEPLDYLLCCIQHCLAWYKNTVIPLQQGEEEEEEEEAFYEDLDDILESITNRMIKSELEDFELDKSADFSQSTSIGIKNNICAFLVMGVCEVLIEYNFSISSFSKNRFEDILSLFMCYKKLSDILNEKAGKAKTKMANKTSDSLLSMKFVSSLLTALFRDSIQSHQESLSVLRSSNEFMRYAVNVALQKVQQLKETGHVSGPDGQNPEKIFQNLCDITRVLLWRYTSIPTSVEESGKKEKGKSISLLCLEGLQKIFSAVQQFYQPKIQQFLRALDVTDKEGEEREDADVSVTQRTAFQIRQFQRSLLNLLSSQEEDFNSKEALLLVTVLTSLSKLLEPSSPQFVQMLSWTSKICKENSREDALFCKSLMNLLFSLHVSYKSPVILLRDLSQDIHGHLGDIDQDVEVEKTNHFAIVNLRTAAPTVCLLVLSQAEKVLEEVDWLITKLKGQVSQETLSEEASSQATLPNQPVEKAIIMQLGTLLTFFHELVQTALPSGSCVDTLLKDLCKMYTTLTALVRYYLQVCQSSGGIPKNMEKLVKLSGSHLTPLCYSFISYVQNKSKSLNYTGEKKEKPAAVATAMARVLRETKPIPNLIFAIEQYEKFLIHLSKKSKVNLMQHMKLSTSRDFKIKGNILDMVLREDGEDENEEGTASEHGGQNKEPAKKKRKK

Legend:
Assay in all cases: pull-down; 4 ug Flag-HA-FANCD2/His-FANCI and 1 ug Flag-HA-FANCL mixed in 100 ug/ml BSA, 20 mM Tris-HCl pH 7.5, 100 mM KCl, 5% glycerol, 2 mM beta-mercaptoethanol, 30 C 1 h; captured on Ni-NTA beads at 4 C, washed with 0.1% Tween-20; SDS-PAGE; both purified
[1] = target: Flag-HA-FANCD2-6A/His-FANCI complex (human) (UniProt Q9BXW9+Q9NVI1)
[2] = target: Flag-HA-FANCD2/His-FANCI complex (human) (UniProt Q9BXW9+Q9NVI1)
[3] = target: Flag-HA-FANCD2-6D/His-FANCI complex (human) (UniProt Q9BXW9+Q9NVI1)

binding [1]: binds
binding [2]: binds
binding [3]: binds
B1: Flag-HA-FANCL (enzyme, UniProt Q9NW38 1-375)
chain: MAVTEASLLRQCPLLLPQNRSKTVYEGFISAQGRDFHLRIVLPEDLQLKNARLLCSWQLRTILSGYHRIVQQRMQHSPDLMSFMMELKMLLEVALKNRQELYALPPPPQFYSSLIEEIGTLGWDKLVYADTCFSTIKLKAEDASGREHLITLKLKAKYPAESPDYFVDFPVPFCASWTPQSSLISIYSQFLAAIESLKAFWDVMDEIDEKTWVLEPEKPPRSATARRIALGNNVSINIEVDPRHPTMLPECFFLGADHVVKPLGIKLSRNIHLWDPENSVLQNLKDVLEIDFPARAILEKSDFTMDCGICYAYQLDGTIPDQVCDNSQCGQPFHQICLYEWLRGLLTSRQSFNIIFGECPYCSKPITLKMSGRKH
